Laboratory results published in the supplement of paper PMC10849652.
Some of the results follow.

Sequences of proteins named here, by UniProt entry; tags and fusion partners are left off. A change or cut given only in a name is not applied to a line headed by its entry.
UniProt Q9NSY0: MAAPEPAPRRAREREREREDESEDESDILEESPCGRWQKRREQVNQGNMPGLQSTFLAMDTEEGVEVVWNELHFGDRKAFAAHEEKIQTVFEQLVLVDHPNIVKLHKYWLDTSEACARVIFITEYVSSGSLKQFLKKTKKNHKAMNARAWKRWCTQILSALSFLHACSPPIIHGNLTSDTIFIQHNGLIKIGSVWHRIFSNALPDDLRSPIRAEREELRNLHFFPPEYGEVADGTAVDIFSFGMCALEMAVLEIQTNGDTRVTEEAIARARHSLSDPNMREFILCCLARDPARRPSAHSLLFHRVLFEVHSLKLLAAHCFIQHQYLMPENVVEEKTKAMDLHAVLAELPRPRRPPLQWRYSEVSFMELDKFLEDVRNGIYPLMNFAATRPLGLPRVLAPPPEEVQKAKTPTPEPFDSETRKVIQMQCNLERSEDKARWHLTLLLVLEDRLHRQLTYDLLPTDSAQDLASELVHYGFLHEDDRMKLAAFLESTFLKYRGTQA
UniProt P40261: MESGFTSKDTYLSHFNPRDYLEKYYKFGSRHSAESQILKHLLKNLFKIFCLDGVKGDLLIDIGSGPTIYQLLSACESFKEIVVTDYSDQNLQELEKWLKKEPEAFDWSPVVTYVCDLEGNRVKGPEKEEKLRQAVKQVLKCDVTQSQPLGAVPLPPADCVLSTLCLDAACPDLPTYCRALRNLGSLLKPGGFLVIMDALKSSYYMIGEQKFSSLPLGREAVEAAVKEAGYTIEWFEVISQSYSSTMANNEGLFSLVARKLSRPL
UniProt P22392, whole entry, looked up: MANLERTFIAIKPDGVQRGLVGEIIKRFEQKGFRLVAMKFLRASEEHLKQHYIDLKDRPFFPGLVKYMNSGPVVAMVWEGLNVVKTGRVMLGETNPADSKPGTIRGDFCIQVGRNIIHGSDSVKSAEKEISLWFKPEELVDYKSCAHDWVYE
UniProt Q9Y3C1: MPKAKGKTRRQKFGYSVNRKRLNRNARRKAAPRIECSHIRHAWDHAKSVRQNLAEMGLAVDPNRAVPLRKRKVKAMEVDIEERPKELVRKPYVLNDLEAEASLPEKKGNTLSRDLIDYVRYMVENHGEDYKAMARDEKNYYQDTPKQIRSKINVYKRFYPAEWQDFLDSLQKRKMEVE
UniProt Q9BV86: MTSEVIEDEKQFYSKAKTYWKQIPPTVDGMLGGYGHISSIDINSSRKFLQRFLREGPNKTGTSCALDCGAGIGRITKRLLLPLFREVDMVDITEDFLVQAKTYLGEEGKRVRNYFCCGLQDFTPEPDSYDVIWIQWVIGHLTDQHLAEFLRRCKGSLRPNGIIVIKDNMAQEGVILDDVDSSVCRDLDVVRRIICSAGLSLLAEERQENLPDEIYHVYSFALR
UniProt Q9Y314: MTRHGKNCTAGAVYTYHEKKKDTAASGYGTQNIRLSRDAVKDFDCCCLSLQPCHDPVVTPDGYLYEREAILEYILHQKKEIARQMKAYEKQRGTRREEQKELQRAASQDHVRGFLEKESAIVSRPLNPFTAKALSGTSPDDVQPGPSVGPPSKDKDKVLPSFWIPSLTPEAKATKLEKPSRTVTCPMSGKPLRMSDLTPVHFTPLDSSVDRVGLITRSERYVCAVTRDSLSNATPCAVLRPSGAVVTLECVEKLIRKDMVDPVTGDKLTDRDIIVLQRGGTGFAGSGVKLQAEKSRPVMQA
UniProt P16083: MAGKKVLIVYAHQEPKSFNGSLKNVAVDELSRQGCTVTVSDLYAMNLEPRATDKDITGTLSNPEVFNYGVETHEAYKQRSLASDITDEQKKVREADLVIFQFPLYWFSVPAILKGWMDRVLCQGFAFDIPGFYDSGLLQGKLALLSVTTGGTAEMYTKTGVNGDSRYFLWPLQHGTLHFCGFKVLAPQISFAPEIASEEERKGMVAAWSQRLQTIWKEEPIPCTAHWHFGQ
UniProt Q9ULX3: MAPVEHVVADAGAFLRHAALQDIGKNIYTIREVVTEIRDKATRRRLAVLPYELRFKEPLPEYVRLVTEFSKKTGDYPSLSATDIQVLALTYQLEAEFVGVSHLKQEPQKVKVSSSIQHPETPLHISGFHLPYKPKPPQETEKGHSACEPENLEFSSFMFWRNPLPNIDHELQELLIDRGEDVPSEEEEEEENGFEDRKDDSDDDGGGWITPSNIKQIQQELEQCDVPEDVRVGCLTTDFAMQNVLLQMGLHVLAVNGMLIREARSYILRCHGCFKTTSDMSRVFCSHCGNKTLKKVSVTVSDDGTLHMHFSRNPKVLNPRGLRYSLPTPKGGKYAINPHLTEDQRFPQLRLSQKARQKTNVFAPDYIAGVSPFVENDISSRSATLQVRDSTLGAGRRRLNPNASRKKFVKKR
UniProt P30419: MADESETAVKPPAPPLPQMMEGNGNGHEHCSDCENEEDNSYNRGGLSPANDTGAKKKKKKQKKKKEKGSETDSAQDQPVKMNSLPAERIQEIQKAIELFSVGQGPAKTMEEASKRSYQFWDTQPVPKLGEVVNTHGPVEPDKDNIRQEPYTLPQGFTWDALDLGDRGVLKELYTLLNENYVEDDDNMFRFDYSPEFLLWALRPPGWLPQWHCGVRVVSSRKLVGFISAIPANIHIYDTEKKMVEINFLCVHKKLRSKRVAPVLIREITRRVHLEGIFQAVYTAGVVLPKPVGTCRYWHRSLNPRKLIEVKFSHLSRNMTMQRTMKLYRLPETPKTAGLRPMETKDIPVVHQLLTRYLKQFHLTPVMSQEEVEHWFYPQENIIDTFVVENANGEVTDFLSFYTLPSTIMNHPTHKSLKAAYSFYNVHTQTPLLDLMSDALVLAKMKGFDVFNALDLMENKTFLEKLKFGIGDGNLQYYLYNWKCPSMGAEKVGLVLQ
UniProt Q5TFE4: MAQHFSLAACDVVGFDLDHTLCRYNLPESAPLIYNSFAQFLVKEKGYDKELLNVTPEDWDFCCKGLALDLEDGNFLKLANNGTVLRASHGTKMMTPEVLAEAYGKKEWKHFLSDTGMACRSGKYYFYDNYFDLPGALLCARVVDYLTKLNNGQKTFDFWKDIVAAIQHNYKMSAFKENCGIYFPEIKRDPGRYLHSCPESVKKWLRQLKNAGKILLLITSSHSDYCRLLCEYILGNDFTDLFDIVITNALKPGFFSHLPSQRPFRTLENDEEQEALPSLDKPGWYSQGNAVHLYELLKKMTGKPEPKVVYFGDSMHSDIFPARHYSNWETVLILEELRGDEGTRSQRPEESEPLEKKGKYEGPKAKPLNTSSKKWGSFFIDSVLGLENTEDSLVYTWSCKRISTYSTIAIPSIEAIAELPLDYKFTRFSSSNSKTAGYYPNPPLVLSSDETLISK
UniProt Q9UGY1: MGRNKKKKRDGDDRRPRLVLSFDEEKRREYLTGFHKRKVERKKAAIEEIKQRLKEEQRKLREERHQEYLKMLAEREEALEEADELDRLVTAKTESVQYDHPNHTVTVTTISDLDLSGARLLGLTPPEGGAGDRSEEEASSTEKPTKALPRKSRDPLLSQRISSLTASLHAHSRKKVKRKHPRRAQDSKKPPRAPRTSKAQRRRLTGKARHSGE
UniProt Q9HBL8: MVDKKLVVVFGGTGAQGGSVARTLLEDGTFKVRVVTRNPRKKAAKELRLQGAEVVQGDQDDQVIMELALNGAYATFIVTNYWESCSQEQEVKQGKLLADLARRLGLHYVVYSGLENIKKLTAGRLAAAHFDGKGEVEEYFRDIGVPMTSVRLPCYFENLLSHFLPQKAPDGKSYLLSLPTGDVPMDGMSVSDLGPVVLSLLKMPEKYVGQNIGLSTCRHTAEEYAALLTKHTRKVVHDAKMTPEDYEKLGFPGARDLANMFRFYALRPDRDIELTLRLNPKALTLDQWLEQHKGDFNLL
UniProt Q96D46: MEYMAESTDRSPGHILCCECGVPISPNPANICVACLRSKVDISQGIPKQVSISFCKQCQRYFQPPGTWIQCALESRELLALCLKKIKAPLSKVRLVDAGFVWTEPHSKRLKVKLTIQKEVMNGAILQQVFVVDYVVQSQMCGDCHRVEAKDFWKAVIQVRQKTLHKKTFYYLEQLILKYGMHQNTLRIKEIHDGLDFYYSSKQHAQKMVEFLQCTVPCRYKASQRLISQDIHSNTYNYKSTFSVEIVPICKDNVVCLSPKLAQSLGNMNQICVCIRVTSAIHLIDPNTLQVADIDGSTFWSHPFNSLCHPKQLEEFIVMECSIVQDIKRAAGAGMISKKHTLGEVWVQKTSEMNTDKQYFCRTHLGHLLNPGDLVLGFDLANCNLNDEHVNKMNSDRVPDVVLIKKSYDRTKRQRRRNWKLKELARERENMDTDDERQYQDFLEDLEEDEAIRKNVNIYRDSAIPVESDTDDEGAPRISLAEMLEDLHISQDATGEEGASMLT
UniProt Q9Y6R0: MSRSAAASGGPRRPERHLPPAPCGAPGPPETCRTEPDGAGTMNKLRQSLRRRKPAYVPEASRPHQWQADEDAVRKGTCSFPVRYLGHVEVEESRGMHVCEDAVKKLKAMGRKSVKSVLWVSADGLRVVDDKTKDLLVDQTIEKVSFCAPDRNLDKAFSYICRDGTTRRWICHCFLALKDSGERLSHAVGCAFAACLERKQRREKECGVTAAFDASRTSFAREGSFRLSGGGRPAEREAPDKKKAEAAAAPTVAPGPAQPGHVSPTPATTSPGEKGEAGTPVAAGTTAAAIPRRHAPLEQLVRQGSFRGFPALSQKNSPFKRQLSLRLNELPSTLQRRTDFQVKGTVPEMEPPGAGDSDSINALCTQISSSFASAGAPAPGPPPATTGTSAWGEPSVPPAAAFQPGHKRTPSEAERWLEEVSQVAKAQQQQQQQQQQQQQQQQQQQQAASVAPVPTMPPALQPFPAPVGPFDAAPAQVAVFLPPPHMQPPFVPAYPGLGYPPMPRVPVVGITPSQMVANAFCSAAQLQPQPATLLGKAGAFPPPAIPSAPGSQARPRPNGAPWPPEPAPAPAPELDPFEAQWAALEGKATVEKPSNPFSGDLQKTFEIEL

What was measured:
Experiment in all cases: log2 fold change, soluble protein after heating vs DMSO (PISA); higher = thermal stabilisation; K562 lysate, 10 uM; active = over 0.2 and 3.5 SD of the protein, either way, in both replicates (recomputed)
[1] = compound: CCCS(=O)(=O)Nc1ccc(F)c(C(=O)c2c[nH]c3ncc(-c4ccc(Cl)cc4)cc23)c1F [vemurafenib]
Outline: (§1)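 Following dounce homogenisation of K562 pellets in PBS pH 7.4 with 1 mM MgCl2, crude extract at 1 mg/mL protein was incubated for 30 min with 10 μM compound. Aliquots were then heated for 3 min over 48°C-58°C and pooled, NP-40 was added to 0.5% at 4°C, and soluble protein was recovered as the supernatant at 21,000xg for 90 min. Channel-sum-equalised TMTpro 16plex LC-MS/MS quantified this protein. Each value, from duplicates, is a log-two fold change in thermal stability relative to solvent controls.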

[2] = compound: CCCS(=O)(=O)Nc1ccc(F)c(C(=O)c2c[nH]c3ncc(Cl)cc23)c1F
Outline: as §1

[3] = compound: CCN(CCCOc1ccc2c(Nc3cc(CC(=O)Nc4cccc(F)c4)[nH]n3)ncnc2c1)CCOP(=O)(O)O [barasertib]
Outline: as §1

[4] = compound: CC[C@@H]1C(=O)N(C)c2cnc(Nc3ccc(C(=O)NC4CCN(C)CC4)cc3OC)nc2N1C1CCCC1
Outline: as §1

[5] = compound: CC[C@@H]1C(=O)N(C)c2cnc(Nc3ccc(C(=O)N[C@H]4CC[C@H](N5CCN(CC6CC6)CC5)CC4)cc3OC)nc2N1C(C)C [volasertib]
Outline: as §1

[6] = compound: CCn1c(C(=O)N(C2CC2)C2CC2)cc2c3c(ncn3C)c(Nc3cc(C)n(C)n3)nc21
Outline: as §1

[7] = compound: CCn1cc(-c2ccnc3[nH]c(-c4cccc(CN(C)C)c4)cc23)c(-c2ccc(NC(=O)N(C)C)cc2)n1
Outline: as §1

[8] = compound: CN1CCC(CNc2ccc3ncc(-c4cccc(OC(F)(F)F)c4)n3n2)CC1
Outline: as §1

[9] = compound: CN1CCN(CCOc2cc(OC3CCOCC3)c3c(Nc4c(Cl)ccc5c4OCO5)ncnc3c2)CC1 [saracatinib]
Outline: as §1

[10] = compound: CN1CCN(c2nc(C3=C(c4c[nH]c5ccccc45)C(=O)NC3=O)c3ccccc3n2)CC1 [sotrastaurin]
Outline: as §1

[11] = compound: CN1CC[C@H](c2c(O)cc(O)c3c(=O)cc(-c4ccccc4Cl)oc23)[C@H](O)C1 [alvocidib]
Outline: as §1

[12] = compound: CN1CCc2c(c3ccccc3n2Cc2ccc(C(=O)NO)cc2)C1 [Tubastatin A]
Outline: as §1

[13] = compound: CNC(=O)C1=CC=CC=C1NC2=NC(=NC=C2Cl)NC3=C(C=C(C=C3)N4CCOCC4)OC
Outline: as §1

[14] = compound: CNC(=O)c1ccc(Nc2ncc(C(F)(F)F)c(NCc3nccnc3N(C)S(C)(=O)=O)n2)cc1 [defactinib]
Outline: as §1

[15] = compound: CNc1nc(-c2ccc3c(N)n[nH]c3c2)cc(N2C[C@@H](C(=O)NC3CCCCC3)CC[C@H]2C)n1
Outline: as §1

[16] = compound: COC(=O)N[C@@H](C)CNc1nccc(-c2cn(C(C)C)nc2-c2cc(Cl)cc(NS(C)(=O)=O)c2F)n1 [encorafenib]
Outline: as §1

[17] = compound: COC(=O)[C@H](CCSC)NC(=O)C1=C(C=C(C=C1)NC[C@H](CS)N)C2=CC=CC=C2
Outline: as §1

[18] = compound: COc1cc(Nc2ncc3c(n2)-c2ccc(Cl)cc2C(c2c(F)cccc2OC)=NC3)ccc1C(=O)O [alisertib]
Outline: as §1

[19] = compound: COc1cc2nc(-c3cc(F)ccc3O)nc(N[C@@H]3CNC[C@H]3C(C)(C)O)c2cc1OC
Outline: as §1

[20] = compound: COc1cc2ncnc(Nc3ccc(F)c(Cl)c3)c2cc1OCCCN1CCOCC1 [gefitinib]
Outline: as §1

Measured: log2 fold change

NRBP2 (UniProt Q9NSY0)
inactive: [1] -0.026 | [2] -0.005 | [3] 0.027 | [4] -0.007 | [5] 0.025 | [6] -0.016 | [7] 0.071 | [8] -0.188 | [9] 0 | [10] -0.064 | [11] -0.027 | [12] 0.035 | [13] 0.03 | [14] -0.101 | [15] 0.004 | [16] 0.036 | [17] 0.033 | [18] 0.011 | [19] -0.01 | [20] 0.131

NNMT (UniProt P40261)
inactive: [1] 0.024 | [2] -0.036 | [3] -0.059 | [4] 0.008 | [5] 0.056 | [6] 0.015 | [7] -0.062 | [8] 0.03 | [9] -0.043 | [10] 0.021 | [11] -0.001 | [12] -0.03 | [13] 0 | [14] -0.049 | [15] -0.086 | [16] 0.043 | [18] 0 | [19] 0.009 | [20] 0.004
active: [17] -0.317

NME2 isoform 2 (UniProt P22392)
inactive: [1] -0.003 | [2] 0.003 | [3] -0.032 | [4] 0.018 | [5] 0.043 | [6] -0.034 | [7] -0.07 | [8] 0.063 | [9] 0.007 | [10] 0.008 | [11] 0.004 | [12] 0.055 | [13] -0.011 | [14] -0.014 | [15] 0.032 | [16] -0.028 | [17] -0.043 | [18] 0.016 | [19] 0.005 | [20] -0.012

NOP16 (UniProt Q9Y3C1)
inactive: [1] 0.017 | [2] -0.007 | [3] -0.003 | [4] -0.003 | [5] -0.026 | [6] 0.008 | [7] 0.046 | [8] -0.007 | [9] 0.011 | [10] 0.008 | [11] 0.018 | [12] 0.013 | [13] 0.053 | [14] -0.013 | [15] -0.009 | [16] 0.005 | [17] 0.03 | [18] -0.008 | [19] -0.021 | [20] -0.012

Two entries picked at random from the list so far, as already listed:
NOP16 (UniProt Q9Y3C1)
inactive: [1] 0.017 | [2] -0.007 | [3] -0.003 | [4] -0.003 | [5] -0.026 | [6] 0.008 | [7] 0.046 | [8] -0.007 | [9] 0.011 | [10] 0.008 | [11] 0.018 | [12] 0.013 | [13] 0.053 | [14] -0.013 | [15] -0.009 | [16] 0.005 | [17] 0.03 | [18] -0.008 | [19] -0.021 | [20] -0.012

NRBP2 (UniProt Q9NSY0)
inactive: [1] -0.026 | [2] -0.005 | [3] 0.027 | [4] -0.007 | [5] 0.025 | [6] -0.016 | [7] 0.071 | [8] -0.188 | [9] 0 | [10] -0.064 | [11] -0.027 | [12] 0.035 | [13] 0.03 | [14] -0.101 | [15] 0.004 | [16] 0.036 | [17] 0.033 | [18] 0.011 | [19] -0.01 | [20] 0.131

Remaining list, next part:

NT5C3A (UniProt Q9H0P0)
inactive: [1] 0.012 | [2] -0.002 | [3] 0.038 | [4] 0.016 | [5] -0.079 | [6] 0.028 | [7] -0.038 | [8] -0.134 | [9] -0.005 | [10] 0.06 | [11] -0.022 | [12] -0.052 | [13] 0.029 | [14] 0.022 | [15] -0.003 | [16] 0.009 | [17] -0.056 | [18] 0.038 | [19] 0.068 | [20] 0.006

NTMT1 (UniProt Q9BV86)
inactive: [1] 0.023 | [2] 0.026 | [3] 0.026 | [4] -0.029 | [5] -0.024 | [6] 0.015 | [7] 0.055 | [8] -0.101 | [9] 0.008 | [10] 0.056 | [11] 0.047 | [12] -0.175 | [13] 0.018 | [14] 0.065 | [15] 0.023 | [16] -0.006 | [17] 0.166 | [18] -0.007 | [19] -0.016 | [20] 0.057

NUDT5 (UniProt Q9UKK9)
inactive: [1] -0.019 | [2] -0.001 | [3] -0.042 | [4] 0.043 | [5] 0.015 | [6] -0.054 | [7] -0.267 | [9] -0.022 | [10] 0.034 | [11] -0.137 | [12] 0.052 | [13] -0.01 | [14] 0.072 | [15] -0.018 | [16] 0.034 | [17] 0.006 | [18] 0.004 | [19] 0.003 | [20] -0.002
active: [8] 0.27

NOSIP (UniProt Q9Y314)
inactive: [1] -0.008 | [2] 0.034 | [3] 0.012 | [4] 0.017 | [5] -0.035 | [6] -0.005 | [7] -0.013 | [8] 0.016 | [9] 0.008 | [10] -0.014 | [11] -0.02 | [12] -0.156 | [13] 0.018 | [14] 0.05 | [15] 0.004 | [16] 0.014 | [17] 0.02 | [18] -0.016 | [19] 0.015 | [20] -0.049

NQO2 (UniProt P16083)
inactive: [1] -0.007 | [2] 0.003 | [3] 0.107 | [4] 0.02 | [5] 0.031 | [6] 0.004 | [7] 0.011 | [8] 0.017 | [9] -0.029 | [10] 0.035 | [11] 0.022 | [12] 0.029 | [13] 0.041 | [14] 0 | [15] 0.024 | [16] -0.007 | [17] -0.054 | [18] -0.047 | [19] -0.006 | [20] 0.011

NOB1 (UniProt Q9ULX3)
inactive: [1] -0.002 | [2] 0.032 | [3] -0.053 | [4] -0.045 | [5] -0.02 | [6] -0.003 | [8] -0.102 | [9] 0.018 | [10] -0.009 | [11] 0.077 | [12] -0.129 | [13] -0.005 | [14] 0 | [15] -0.011 | [16] 0.036 | [17] 0.037 | [18] 0.047 | [19] -0.031 | [20] -0.022
active: [7] 0.274

NMT1 (UniProt P30419)
inactive: [1] 0.024 | [2] 0.016 | [3] -0.025 | [4] 0.014 | [5] -0.002 | [6] 0.01 | [7] -0.04 | [8] 0.001 | [9] 0.003 | [10] 0.025 | [11] 0.021 | [12] 0.001 | [13] 0.001 | [14] 0.031 | [15] 0.011 | [16] -0.001 | [17] 0.087 | [18] -0.005 | [19] 0.007 | [20] -0.006

NT5DC1 (UniProt Q5TFE4)
inactive: [1] -0.016 | [2] -0.001 | [3] -0.002 | [4] 0.064 | [5] -0.009 | [6] -0.025 | [7] -0.036 | [8] 0.056 | [9] 0.013 | [10] -0.004 | [11] 0.003 | [12] 0.006 | [13] 0.032 | [14] -0.002 | [15] -0.009 | [16] -0.013 | [17] -0.036 | [18] -0.028 | [19] -0.006 | [20] 0.036

NOL12 (UniProt Q9UGY1)
inactive: [1] 0.028 | [2] 0.029 | [3] 0.012 | [4] -0.026 | [5] -0.016 | [6] 0.008 | [7] -0.004 | [8] -0.043 | [9] 0.019 | [10] 0.013 | [11] 0.038 | [12] -0.014 | [13] -0.004 | [14] -0.036 | [15] 0.02 | [16] -0.027 | [17] 0.044 | [18] -0.058 | [19] 0.031 | [20] 0.098

NMRAL1 (UniProt Q9HBL8)
active: [17] 0.406
inactive: [1] -0.03 | [2] -0.023 | [3] 0.178 | [4] 0.045 | [5] -0.046 | [6] 0.045 | [7] -0.092 | [8] 0.053 | [9] 0.011 | [10] -0.034 | [11] 0 | [12] 0.036 | [13] -0.044 | [14] -0.003 | [15] 0.026 | [16] -0.003 | [18] 0.021 | [19] 0.001 | [20] -0.002

NMD3 (UniProt Q96D46)
inactive: [1] 0.008 | [2] 0.018 | [3] 0.004 | [4] -0.006 | [5] -0.01 | [6] 0 | [7] -0.01 | [8] 0.001 | [9] -0.006 | [10] -0.016 | [11] -0.001 | [12] -0.011 | [13] 0.019 | [14] -0.033 | [15] 0.016 | [16] 0.007 | [17] -0.036 | [18] -0.018 | [19] 0.012 | [20] -0.074

NUMBL (UniProt Q9Y6R0)
inactive: [1] -0.06 | [2] 0.014 | [3] -0.005 | [4] -0.009 | [5] -0.037 | [6] 0.189 | [7] 0.032 | [8] -0.011 | [9] 0.052 | [10] -0.278 | [11] -0.032 | [12] -0.103 | [13] -0.023 | [14] -0.218 | [15] 0.023 | [16] 0.189 | [17] -0.068 | [18] -0.064 | [19] 0.044 | [20] 0.09
